Six molecules from article PMC12599624 can be followed below.

Amino acid sequences for entries named in this document (tags omitted). Residues count along the entry.
UniProt Q13283: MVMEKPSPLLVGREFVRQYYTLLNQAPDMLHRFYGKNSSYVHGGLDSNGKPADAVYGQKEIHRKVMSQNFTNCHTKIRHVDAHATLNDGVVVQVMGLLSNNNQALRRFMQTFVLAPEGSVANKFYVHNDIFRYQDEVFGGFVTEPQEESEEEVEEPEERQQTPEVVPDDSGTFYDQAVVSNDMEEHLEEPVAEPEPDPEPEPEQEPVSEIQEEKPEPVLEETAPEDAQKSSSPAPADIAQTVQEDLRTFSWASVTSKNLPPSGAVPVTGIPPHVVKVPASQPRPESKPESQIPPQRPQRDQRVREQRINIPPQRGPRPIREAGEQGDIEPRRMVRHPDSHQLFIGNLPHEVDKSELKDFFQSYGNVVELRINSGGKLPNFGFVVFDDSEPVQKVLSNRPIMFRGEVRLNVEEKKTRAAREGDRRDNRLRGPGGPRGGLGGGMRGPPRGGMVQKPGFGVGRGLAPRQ
UniProt Q8TEM1, residues 27-1887: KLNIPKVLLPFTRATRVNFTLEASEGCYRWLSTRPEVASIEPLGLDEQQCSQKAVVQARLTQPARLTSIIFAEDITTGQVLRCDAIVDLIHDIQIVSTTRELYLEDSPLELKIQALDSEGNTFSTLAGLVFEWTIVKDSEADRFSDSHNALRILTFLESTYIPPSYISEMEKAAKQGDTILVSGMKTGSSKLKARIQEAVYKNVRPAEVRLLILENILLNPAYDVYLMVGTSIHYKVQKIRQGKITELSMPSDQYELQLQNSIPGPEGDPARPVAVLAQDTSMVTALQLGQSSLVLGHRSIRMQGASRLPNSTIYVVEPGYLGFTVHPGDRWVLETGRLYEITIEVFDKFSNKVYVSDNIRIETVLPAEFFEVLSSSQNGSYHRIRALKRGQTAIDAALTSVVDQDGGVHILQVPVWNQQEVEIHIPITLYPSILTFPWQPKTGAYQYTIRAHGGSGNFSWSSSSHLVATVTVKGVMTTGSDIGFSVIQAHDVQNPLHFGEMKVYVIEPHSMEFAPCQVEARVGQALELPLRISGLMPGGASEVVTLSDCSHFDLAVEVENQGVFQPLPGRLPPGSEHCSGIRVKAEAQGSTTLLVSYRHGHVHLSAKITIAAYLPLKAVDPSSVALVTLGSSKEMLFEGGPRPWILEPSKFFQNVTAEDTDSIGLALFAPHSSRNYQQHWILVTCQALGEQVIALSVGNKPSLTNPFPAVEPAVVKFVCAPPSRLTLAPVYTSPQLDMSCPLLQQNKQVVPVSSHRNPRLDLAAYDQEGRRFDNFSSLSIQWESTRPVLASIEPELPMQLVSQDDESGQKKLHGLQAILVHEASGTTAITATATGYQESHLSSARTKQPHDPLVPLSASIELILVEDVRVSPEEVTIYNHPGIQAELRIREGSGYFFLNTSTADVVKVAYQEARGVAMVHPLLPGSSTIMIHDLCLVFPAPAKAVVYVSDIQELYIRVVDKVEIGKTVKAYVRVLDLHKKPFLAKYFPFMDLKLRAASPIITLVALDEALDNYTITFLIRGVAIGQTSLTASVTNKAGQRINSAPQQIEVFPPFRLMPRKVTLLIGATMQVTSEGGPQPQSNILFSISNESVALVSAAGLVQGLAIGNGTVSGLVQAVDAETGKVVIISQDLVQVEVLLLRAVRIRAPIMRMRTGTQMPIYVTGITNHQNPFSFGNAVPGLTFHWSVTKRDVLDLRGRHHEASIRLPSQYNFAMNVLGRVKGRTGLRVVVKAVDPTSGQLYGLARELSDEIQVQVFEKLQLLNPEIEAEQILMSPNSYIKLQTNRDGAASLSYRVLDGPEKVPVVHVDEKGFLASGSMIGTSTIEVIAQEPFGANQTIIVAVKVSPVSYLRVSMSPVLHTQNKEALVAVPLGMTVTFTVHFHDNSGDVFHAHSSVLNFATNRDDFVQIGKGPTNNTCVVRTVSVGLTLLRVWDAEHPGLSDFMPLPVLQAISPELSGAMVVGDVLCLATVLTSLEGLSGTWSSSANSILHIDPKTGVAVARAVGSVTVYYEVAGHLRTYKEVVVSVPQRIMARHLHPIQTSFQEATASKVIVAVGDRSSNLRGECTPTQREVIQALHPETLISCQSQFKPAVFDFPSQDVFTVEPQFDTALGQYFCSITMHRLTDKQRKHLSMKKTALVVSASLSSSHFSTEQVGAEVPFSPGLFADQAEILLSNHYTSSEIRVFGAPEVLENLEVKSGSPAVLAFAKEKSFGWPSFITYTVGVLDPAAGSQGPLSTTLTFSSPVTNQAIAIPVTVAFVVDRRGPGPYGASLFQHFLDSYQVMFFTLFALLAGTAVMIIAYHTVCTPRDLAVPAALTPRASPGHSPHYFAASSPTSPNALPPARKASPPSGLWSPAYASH
UniProt P22314: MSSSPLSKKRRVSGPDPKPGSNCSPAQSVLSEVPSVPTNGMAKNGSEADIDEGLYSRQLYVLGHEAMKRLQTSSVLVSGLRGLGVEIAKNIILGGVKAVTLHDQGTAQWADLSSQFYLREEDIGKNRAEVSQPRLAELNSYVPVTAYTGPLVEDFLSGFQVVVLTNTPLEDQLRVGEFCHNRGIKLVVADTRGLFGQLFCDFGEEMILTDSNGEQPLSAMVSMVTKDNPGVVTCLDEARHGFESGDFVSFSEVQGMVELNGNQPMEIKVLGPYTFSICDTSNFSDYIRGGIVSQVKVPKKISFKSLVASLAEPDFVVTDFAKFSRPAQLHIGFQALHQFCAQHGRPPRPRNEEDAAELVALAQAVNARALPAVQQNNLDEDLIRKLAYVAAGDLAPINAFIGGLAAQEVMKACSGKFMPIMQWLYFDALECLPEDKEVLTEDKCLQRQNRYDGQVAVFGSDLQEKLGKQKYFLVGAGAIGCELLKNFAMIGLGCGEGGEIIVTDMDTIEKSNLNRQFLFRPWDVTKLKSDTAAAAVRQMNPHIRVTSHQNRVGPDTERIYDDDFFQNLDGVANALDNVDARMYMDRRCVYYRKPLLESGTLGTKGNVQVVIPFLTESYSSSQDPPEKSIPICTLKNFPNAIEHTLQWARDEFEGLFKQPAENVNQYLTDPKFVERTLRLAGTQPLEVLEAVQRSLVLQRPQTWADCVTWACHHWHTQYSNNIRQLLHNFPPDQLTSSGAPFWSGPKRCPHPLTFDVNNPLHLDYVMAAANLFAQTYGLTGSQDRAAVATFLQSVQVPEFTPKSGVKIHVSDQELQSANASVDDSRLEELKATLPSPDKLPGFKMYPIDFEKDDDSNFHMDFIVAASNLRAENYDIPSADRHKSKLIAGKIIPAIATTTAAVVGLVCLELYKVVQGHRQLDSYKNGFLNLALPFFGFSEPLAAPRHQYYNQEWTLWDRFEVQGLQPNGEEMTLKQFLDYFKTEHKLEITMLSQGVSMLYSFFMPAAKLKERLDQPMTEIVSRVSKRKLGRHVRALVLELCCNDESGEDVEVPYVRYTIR
UniProt Q92598: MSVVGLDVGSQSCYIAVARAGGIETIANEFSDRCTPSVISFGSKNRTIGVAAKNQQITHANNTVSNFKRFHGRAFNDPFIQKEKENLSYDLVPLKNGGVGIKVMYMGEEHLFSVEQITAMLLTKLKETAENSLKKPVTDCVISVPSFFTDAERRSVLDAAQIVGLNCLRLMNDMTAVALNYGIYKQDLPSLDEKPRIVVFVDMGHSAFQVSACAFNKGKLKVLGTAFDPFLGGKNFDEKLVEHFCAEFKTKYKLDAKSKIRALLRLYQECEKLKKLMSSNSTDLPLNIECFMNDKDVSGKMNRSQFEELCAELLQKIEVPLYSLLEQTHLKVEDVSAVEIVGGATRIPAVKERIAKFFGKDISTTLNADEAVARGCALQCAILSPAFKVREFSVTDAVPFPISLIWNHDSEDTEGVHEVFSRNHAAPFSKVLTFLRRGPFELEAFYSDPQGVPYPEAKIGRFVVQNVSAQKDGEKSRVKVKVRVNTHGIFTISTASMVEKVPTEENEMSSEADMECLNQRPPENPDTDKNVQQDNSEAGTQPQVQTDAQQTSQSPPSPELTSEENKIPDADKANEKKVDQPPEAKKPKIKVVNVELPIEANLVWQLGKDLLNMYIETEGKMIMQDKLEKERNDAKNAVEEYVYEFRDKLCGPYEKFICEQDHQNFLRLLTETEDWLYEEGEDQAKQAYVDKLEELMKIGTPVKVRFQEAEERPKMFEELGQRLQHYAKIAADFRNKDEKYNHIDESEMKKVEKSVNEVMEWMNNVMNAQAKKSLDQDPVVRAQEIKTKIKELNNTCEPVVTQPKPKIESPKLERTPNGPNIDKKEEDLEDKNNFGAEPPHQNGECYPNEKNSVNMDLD

In this assay the target is Ras GTPase-activating protein-binding protein 1 (G3BP1) (human (endogenous in iPSC-derived motor neurons)) (UniProt Q13283). Kind of assay: affinity purification with mass spectrometry; immunoprecipitation with monoclonal mouse anti-G3BP1 antibody and Protein A microbeads from 300 ug lysate (SDS-free RIPA buffer) of iPSC-derived motor neurons (control, C9-1, C9-2), untreated or treated with 500 uM sodium arsenite for 1 h; on-column trypsin digestion, label-free quantitative proteomics.

No constants are given. Whether binding was seen depends on the method and setting. In cells and extracts the contact can be indirect. These calls come from enrichment with a bait or labelling near it, and not all partners need be listed.

Take “nucleoporin Nup210 (from UniProt Q8TEM1 27-1887)”: the binding entry is “binds”.
The same measure for UBA1 (from UniProt P22314 1-1058): “binds”; for HSPH1 (from UniProt Q92598 1-858): “binds”.

B1: nucleoporin Nup107 (protein, UniProt P57740 1-925)
chain: MDRSGFGEISSPVIREAEVTRTARKQSAQKRVLLQASQDENFGNTTPRNQVIPRTPSSFRQPFTPTSRSLLRQPDISCILGTGGKSPRLTQSSGFFGNLSMVTNLDDSNWAAAFSSQRSGLFTNTEPHSITEDVTISAVMLREDDPGEAASMSMFSDFLQSFLKHSSSTVFDLVEEYENICGSQVNILSKIVSRATPGLQKFSKTASMLWLLQQEMVTWRLLASLYRDRIQSALEEESVFAVTAVNASEKTVVEALFQRDSLVRQSQLVVDWLESIAKDEIGEFSDNIEFYAKSVYWENTLHTLKQRQLTSYVGSVRPLVTELDPDAPIRQKMPLDDLDREDEVRLLKYLFTLIRAGMTEEAQRLCKRCGQAWRAATLEGWKLYHDPNVNGGTELEPVEGNPYRRIWKISCWRMAEDELFNRYERAIYAALSGNLKQLLPVCDTWEDTVWAYFRVMVDSLVEQEIQTSVATLDETEELPREYLGANWTLEKVFEELQATDKKRVLEENQEHYHIVQKFLILGDIDGLMDEFSKWLSKSRNNLPGHLLRFMTHLILFFRTLGLQTKEEVSIEVLKTYIQLLIREKHTNLIAFYTCHLPQDLAVAQYALFLESVTEFEQRHHCLELAKEADLDVATITKTVVENIRKKDNGEFSHHDLAPALDTGTTEEDRLKIDVIDWLVFDPAQRAEALKQGNAIMRKFLASKKHEAAKEVFVKIPQDSIAEIYNQCEEQGMESPLPAEDDNAIREHLCIRAYLEAHETFNEWFKHMNSVPQKPALIPQPTFTEKVAHEHKEKKYEMDFGIWKGHLDALTADVKEKMYNVLLFVDGGWMVDVREDAKEDHERTHQMVLLRKLCLPMLCFLLHTILHSTGQYQECLQLADMVSSERHKLYLVFSKEELRKLLQKLRESSLMLLDQGLDPLGYEIQL
Take B1: the binding result is listed as “binds”.

B2: SEPT9 (protein, UniProt Q9UHD8 1-586)
chain: MKKSYSGGTRTSSGRLRRLGDSSGPALKRSFEVEEVETPNSTPPRRVQTPLLRATVASSTQKFQDLGVKNSEPSARHVDSLSQRSPKASLRRVELSGPKAAEPVSRRTELSIDISSKQVENAGAIGPSRFGLKRAEVLGHKTPEPAPRRTEITIVKPQESAHRRMEPPASKVPEVPTAPATDAAPKRVEIQMPKPAEAPTAPSPAQTLENSEPAPVSQLQSRLEPKPQPPVAEATPRSQEATEAAPSCVGDMADTPRDAGLKQAPASRNEKAPVDFGYVGIDSILEQMRRKAMKQGFEFNIMVVGQSGLGKSTLINTLFKSKISRKSVQPTSEERIPKTIEIKSITHDIEEKGVRMKLTVIDTPGFGDHINNENCWQPIMKFINDQYEKYLQEEVNINRKKRIPDTRVHCCLYFIPATGHSLRPLDIEFMKRLSKVVNIVPVIAKADTLTLEERVHFKQRITADLLSNGIDVYPQKEFDEDSEDRLVNEKFREMIPFAVVGSDHEYQVNGKRILGRKTKWGTIEVENTTHCEFAYLRDLLIRTHMQNIKDITSSIHFEAYRVKRLNEGSSAMANGMEEKEPEAPEM
B2: the binding result is “binds”.

B3: nucleoporin Nup93 (protein, UniProt Q8N1F7 1-819)
chain: MDTEGFGELLQQAEQLAAETEGISELPHVERNLQEIQQAGERLRSRTLTRTSQETADVKASVLLGSRGLDISHISQRLESLSAATTFEPLEPVKDTDIQGFLKNEKDNALLSAIEESRKRTFGMAEEYHRESMLVEWEQVKQRILHTLLASGEDALDFTQESEPSYISDVGPPGRSSLDNIEMAYARQIYIYNEKIVNGHLQPNLVDLCASVAELDDKSISDMWTMVKQMTDVLLTPATDALKNRSSVEVRMEFVRQALAYLEQSYKNYTLVTVFGNLHQAQLGGVPGTYQLVRSFLNIKLPAPLPGLQDGEVEGHPVWALIYYCMRCGDLLAASQVVNRAQHQLGEFKTWFQEYMNSKDRRLSPATENKLRLHYRRALRNNTDPYKRAVYCIIGRCDVTDNQSEVADKTEDYLWLKLNQVCFDDDGTSSPQDRLTLSQFQKQLLEDYGESHFTVNQQPFLYFQVLFLTAQFEAAVAFLFRMERLRCHAVHVALVLFELKLLLKSSGQSAQLLSHEPGDPPCLRRLNFVRLLMLYTRKFESTDPREALQYFYFLRDEKDSQGENMFLRCVSELVIESREFDMILGKLENDGSRKPGVIDKFTSDTKPIINKVASVAENKGLFEEAAKLYDLAKNADKVLELMNKLLSPVVPQISAPQSNKERLKNMALSIAERYRAQGISANKFVDSTFYLLLDLITFFDEYHSGHIDRAFDIIERLKLVPLNQESVEERVAAFRNFSDEIRHNLSEVLLATMNILFTQFKRLKGTSPSSSSRPQRVIEDRDSQLRSQARTLITFAGMIPYRTSGDTNARLVQMEVLMN
B3: the binding result is reported as “binds”.
